Consider three molecules from publication doi:10.1101/2024.09.05.611546.

Experiment [1] addresses Arabidopsis Dcp1 fused to the GAL4 DNA binding domain (BD-Dcp1) (Arabidopsis thaliana) (UniProt Q9SJF3). Put plainly: two-hybrid.
The target of experiment [2] is AtDcp1 fused with the C-terminal half of YFP (Dcp1-YC) (Arabidopsis thaliana) (UniProt Q9SJF3). As to the kind of experiment: split reporter.

No constants are given. Whether binding was seen depends on the method and setting. For part of these data: Binding can be weak; no strength is given. For part of these data: Binding seen in cells or lysates may run through a third protein. Sequences can lack the tags named with a protein.

Regarding “TCV capsid protein fused to the GAL4 activation domain (AD-CP) (from UniProt P06663 1-351)”, the binding entry in experiment [1] is given as “binds”.

B1: TCV P28 fused to the GAL4 activation domain (AD-P28) (protein, UniProt P17460 1-250)
chain: MPLLHTLNTALAVGLLGARYYPEVQTFLGLPDYVGHMKNVVRSVFQGSGLVVVSSDTVGVRGTYSNRGQIGSSLGCILAVPDSGADIEIDLDRLVGTEEEATSCLVEAVGSTADVPRRRVRQKGRFAMHAVNAAKLHFCGVPKPTEANRLAVSKWLVQYCKERHVVDSHIRTIVNTALPRVFTPDAEDIQVVLDLHSVRAHDHRNALAEAGKVRKWWVNLAMHPMTGRSWSRAWRRLCRLPDDQAISFVR
For the molecule B1, the binding result in experiment [1] is given as “no binding”.

B2: TCV P28 fused with the N-terminal half of YFP (YN-P28) (protein, UniProt P17460 1-250)
chain: MPLLHTLNTALAVGLLGARYYPEVQTFLGLPDYVGHMKNVVRSVFQGSGLVVVSSDTVGVRGTYSNRGQIGSSLGCILAVPDSGADIEIDLDRLVGTEEEATSCLVEAVGSTADVPRRRVRQKGRFAMHAVNAAKLHFCGVPKPTEANRLAVSKWLVQYCKERHVVDSHIRTIVNTALPRVFTPDAEDIQVVLDLHSVRAHDHRNALAEAGKVRKWWVNLAMHPMTGRSWSRAWRRLCRLPDDQAISFVR
B2: the binding result in experiment [2] was “no binding”.
